# Laboratory results published in PubChem BioAssay AID488807 (Broad Institute, 2010).
# The shares of active, inactive and inconclusive entries below differ from those in the screen. Activity calls are given as the source filed them. No rule for the calls is given here.
# Assay: growth inhibition of resistant C. albicans, dose response, CaCi-8, fluconazole, Alamar Blue, dry powder (AID 488807)
# Conditions: C. albicans CaCi-8 + fluconazole, 48 h; at 26 µM (top of the series) unless noted
row,Compound,"activity change, negative = inhibition"
1,CCCNC(=O)Cn1nc(-c2ccccc2)c2ccccc21,inactive: 101%
2,CC1CCN(C(=O)Cn2c3ccccc3c3nc4n(c(=O)c32)CCCS4)CC1,inconclusive: -81.3%
3,COc1ccc2c(c1)c1nc3n(c(=O)c1n2CC(=O)N1CCC(C)CC1)CCS3,inactive: 13% [at 2.6 µM]
4,CCCCNC(=O)N1CCN(c2ccnc3cc(Cl)ccc23)CC1,inconclusive: -75.2%
5,CNC(=O)Cn1nc(-c2ccccc2)c2ccccc21,inconclusive: -10.3%
6,Cc1nn(S(C)(=O)=O)c2ccccc12,inactive: -59%
